Results deposited as PubChem BioAssay AID652243 (Drosophila RNAi Screening Center, 2013)

- Screen: 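Fly genes required for human androgen receptor driven transcription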 (primary screen)
- System: Drosophila S2R+ cells
- Reagents: long dsRNA against Drosophila genes
- Timing: 72 h (48 h, then 24 h hormone)
- Conditions: synthetic androgen R1881 at 10 nM for 24 h
- Measurement: 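Firefly light from an androgen-responsive reporter and Renilla control light per well, raw and unnormalised, for each of two replicates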
- Scale: firefly reporter light: higher = more light from androgen-responsive reporter; Renilla control light: higher = more constitutive control signal (cell number, transfection)
- Hit rule: 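Hit when the log firefly-to-Renilla ratio dropped or increased by a fixed fold versus the mean of GFP or LacZ controls across duplicate plates; lowering cut given as 1.5 and as 3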
- Meaning of the calls: active = hit: reporter lowered or raised; inactive = no hit
In all, the deposit lists about 24,000 reagents; this is a random part of those with a known target gene and a result. Over the whole deposit, 246 (1%) got an active call. 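Plates not normalised; calls are printed but the firefly/Renilla ratio behind them is not deposited; fold cut for lowering reported inconsistently.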 Raw values vary from plate to plate and are shown uncorrected. A plus sign joins genes that one reagent is predicted to hit. No sequences are given here. Not given: the amount of reagent.

gene	amplicon	firefly reporter light, replicate 1	firefly reporter light, replicate 2	Renilla control light, replicate 1	Renilla control light, replicate 2	Outcome
CG12502	DRSC23247	1.18e6	1.18e6	1.71e6	1.77e6	inactive
Nrg (Neuroglian)	DRSC17573	6.16e5	8.51e5	1.77e6	1.99e6	inactive
Nrg (Neuroglian)	DRSC18688	92821	1.12e5	7.91e5	5.13e5	inactive
Nrg (Neuroglian)	DRSC27797	2.02e5	2.83e5	3.05e5	7.57e5	inactive
dmrt93B (doublesex-Mab related 93B)	DRSC15865	1.83e5	1.74e5	2.87e6	2.86e6	inactive
dmrt93B (doublesex-Mab related 93B)	DRSC29931	6.13e5	3.90e5	1.08e6	1.25e6	inactive
CG14109	DRSC10112	3.31e5	2.12e5	2.89e6	2.13e6	inactive
CG14109	DRSC25337	6.05e5	8.14e5	6.82e5	7.97e5	inactive
CG32301	DRSC08613	68729	93240	9.28e5	1.06e6	inactive
CG14454	DRSC11711	3.21e5	2.33e5	2.62e6	2.26e6	inactive
CG14454	DRSC23866	8.58e5	1.08e6	9.20e5	1.02e6	inactive
CG42819	DRSC02264	1.32e5	1.43e5	1.21e6	1.09e6	inactive
wry (weary)	DRSC00352	56497	64766	3.82e5	5.25e5	inactive
wry (weary)	DRSC00456	69360	2.25e5	7.95e5	1.29e6	inactive
wry (weary)	DRSC22414	4.99e5	1.05e6	8.55e5	1.73e6	inactive
tra (transformer)	DRSC11405	2.72e5	1.94e5	2.59e6	1.42e6	inactive
CG31086 + CG31323	DRSC14902	1.78e5	1.82e5	1.91e6	2.19e6	inactive
CG31086 + CG31323	DRSC24466	5.80e5	5.91e5	8.30e5	7.97e5	inactive
CG8006	DRSC10949	1.00e6	1.00e6	8.61e5	1.57e6	inactive
CG18048	DRSC12573	1.15e5	84838	2.80e6	2.24e6	inactive
CG18048	DRSC29053	3.38e5	3.08e5	1.79e6	1.26e6	active
Gmppa (GDP-mannose pyrophosphorylase A)	DRSC07108	78383	1.06e5	1.52e6	1.52e6	inactive
Gmppa (GDP-mannose pyrophosphorylase A)	DRSC25683	9.19e5	8.90e5	1.11e6	1.27e6	inactive
aos (argos)	DRSC11323	1.96e5	2.54e5	2.35e6	1.81e6	inactive
CG34310	DRSC38924	9.05e5	1.04e6	2.02e6	2.07e6	inactive
Cyp12b2 (Cytochrome P450 12b2)	DRSC07364	84938	91186	1.10e6	1.36e6	inactive
Amun	DRSC19847	4.86e5	4.72e5	3.15e6	2.95e6	inactive
Amun	DRSC28058	5.88e5	7.70e5	7.16e5	6.80e5	inactive
CG4598	DRSC02763	2.22e5	1.75e5	1.28e6	1.30e6	inactive
qua (quail)	DRSC03598	1.54e5	2.05e5	1.86e6	2.24e6	inactive
CG7148	DRSC11802	27965	37281	3.23e5	3.70e5	inactive
CG8204	DRSC07106	1.45e5	1.23e5	2.02e6	2.02e6	inactive
CG9344	DRSC04541	3.35e5	4.42e5	2.14e6	2.21e6	inactive
lncRNA:CR40469 + lncRNA:CR34335	DRSC38755	6.66e5	8.06e5	1.27e6	1.94e6	inactive
Mes2 (Mesoderm-expressed 2)	DRSC11593	2.03e5	97048	3.27e5	1.69e5	inactive
Mes2 (Mesoderm-expressed 2)	DRSC11632	1.65e5	2.32e5	8.00e5	9.49e5	inactive
Nep7 (Neprilysin 7)	DRSC15830	1.38e5	81672	1.87e6	2.29e6	inactive
Nep7 (Neprilysin 7)	DRSC26582	3.19e5	3.04e5	6.62e5	6.09e5	inactive
snRNA:U1:21D (small nuclear RNA U1 at 21D)	DRSC37901	7.95e5	8.33e5	1.49e6	1.82e6	inactive
sncRNA:430e + His2A:CG33859 + His2A:CG33817 + 42 more	DRSC25850	5.02e5	6.10e5	1.23e5	1.52e5	inactive
Ntf-2 (Nuclear transport factor-2)	DRSC20552	1.46e5	1.33e5	9.68e5	9.68e5	inactive
Ntf-2 (Nuclear transport factor-2)	DRSC25597	6.61e5	5.50e5	5.24e5	6.20e5	inactive
CG15742	DRSC19708	65477	99992	7.50e5	7.87e5	inactive
CG15742	DRSC28195	6.41e5	5.30e5	1.88e6	1.51e6	inactive
CG4988	DRSC02800	3.11e5	2.29e5	1.72e6	1.69e6	inactive
COX7AL (Cytochrome c oxidase subunit 7A-like)	DRSC15313	59538	78636	1.68e6	1.49e6	inactive
COX7AL (Cytochrome c oxidase subunit 7A-like)	DRSC25198	9.03e5	9.01e5	5.33e5	8.81e5	inactive
CG5521	DRSC15828	2.43e5	2.27e5	2.28e6	2.57e6	inactive
CG5521	DRSC30087	5.59e5	6.71e5	1.10e6	1.07e6	inactive
Cul4 (Cullin 4)	DRSC07243	2.53e5	4.92e5	9.34e5	1.03e6	inactive
Cul4 (Cullin 4)	DRSC27185	2.21e5	2.11e5	4.37e5	5.36e5	inactive
CG6225	DRSC15996	78878	1.11e5	1.49e6	1.88e6	inactive
CG15517	DRSC15056	1.74e5	1.48e5	1.92e6	2.48e6	inactive
CG2006	DRSC15412	8.72e5	9.95e5	1.24e6	1.39e6	inactive
pnr (pannier)	DRSC17027	51056	77019	9.31e5	1.14e6	inactive
pnr (pannier)	DRSC25347	4.63e5	2.94e5	4.46e5	5.19e5	inactive
Mrgn1 (Mahogunin ring finger 1)	DRSC20223	34160	28112	2.62e5	2.31e5	inactive
Mst84Dc (Male-specific RNA 84Dc)	DRSC12599	1.35e5	1.25e5	1.79e6	2.02e6	inactive

Look-ups from the entries so far:
Under “Renilla control light, replicate 2”, CG5521 [DRSC15828] is entered as 2.57e6
Value for COX7AL (Cytochrome c oxidase subunit 7A-like) [DRSC15313] in “firefly reporter light, replicate 1”: 59538
Entry of CG14454 [DRSC11711] in “firefly reporter light, replicate 2”: 2.33e5
Result for Cul4 (Cullin 4) [DRSC07243] under “Renilla control light, replicate 1”: 9.34e5
CG6225 [DRSC15996], firefly reporter light, replicate 2 → 1.11e5
Entry for CG15742 [DRSC28195] under “firefly reporter light, replicate 2”: 5.30e5
